{"source": "paper PMC13175477", "key": {"STING-FLAG (human)": {"biological_target": "STING-FLAG (human) (UniProt Q86WV6)", "test": "co-IP; HEK293T co-transfected, 48 h; lysis in 10mM HEPES pH7.5, 30mM KCl, 40uM EDTA, 0.1% Igepal CA-630, 1mM DTT; FLAG-tagged sensor precipitated with anti-FLAG on Protein G Dynabeads, 2h at 4C; final washes with 300mM KCl, 0.5% Igepal; western blot"}, "ZAP-L-FLAG (human) [1]": {"biological_target": "ZAP-L-FLAG (human) (UniProt Q7Z2W4)", "test": "co-IP; HEK293T ZAP-/- TRIM25-/- co-transfected, 48 h; ZAP precipitated from lysates (ZAP-L-FLAG with anti-FLAG; antibody for ZAP-S not stated); buffers as in the co-IP methods; western blot"}, "RIG-I-FLAG (human)": {"biological_target": "T1, RIG-I-FLAG (human) (UniProt O95786)", "T1 sequence": "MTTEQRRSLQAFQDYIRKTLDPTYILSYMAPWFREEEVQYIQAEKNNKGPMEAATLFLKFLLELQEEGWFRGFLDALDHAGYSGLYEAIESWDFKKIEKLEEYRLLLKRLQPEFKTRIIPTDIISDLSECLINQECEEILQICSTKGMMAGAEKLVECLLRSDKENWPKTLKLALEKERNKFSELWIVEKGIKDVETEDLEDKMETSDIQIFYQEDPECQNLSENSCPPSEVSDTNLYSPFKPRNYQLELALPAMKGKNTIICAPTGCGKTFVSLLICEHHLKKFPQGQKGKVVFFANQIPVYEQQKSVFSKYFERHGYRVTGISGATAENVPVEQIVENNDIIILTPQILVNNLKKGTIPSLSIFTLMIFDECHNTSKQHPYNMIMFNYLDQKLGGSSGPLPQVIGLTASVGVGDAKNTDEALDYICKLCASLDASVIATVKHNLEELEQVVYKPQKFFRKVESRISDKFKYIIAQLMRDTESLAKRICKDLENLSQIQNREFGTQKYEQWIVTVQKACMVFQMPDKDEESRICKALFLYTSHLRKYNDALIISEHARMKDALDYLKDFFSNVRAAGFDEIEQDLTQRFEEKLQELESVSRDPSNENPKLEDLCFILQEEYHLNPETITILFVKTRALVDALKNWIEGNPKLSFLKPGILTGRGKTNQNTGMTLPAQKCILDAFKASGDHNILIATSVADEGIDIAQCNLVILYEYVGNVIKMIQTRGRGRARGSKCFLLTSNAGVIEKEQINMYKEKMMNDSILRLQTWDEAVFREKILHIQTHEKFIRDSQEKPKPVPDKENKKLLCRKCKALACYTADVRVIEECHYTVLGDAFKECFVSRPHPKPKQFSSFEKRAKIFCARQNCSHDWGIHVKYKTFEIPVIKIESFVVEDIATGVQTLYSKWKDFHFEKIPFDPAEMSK", "test": "co-IP; HEK293T co-transfected, 48 h; lysis in 10mM HEPES pH7.5, 30mM KCl, 40uM EDTA, 0.1% Igepal CA-630, 1mM DTT; FLAG-tagged sensor precipitated with anti-FLAG on Protein G Dynabeads, 2h at 4C; final washes with 300mM KCl, 0.5% Igepal; western blot"}, "ZAP-L-FLAG (human) [2]": {"biological_target": "ZAP-L-FLAG (human) (UniProt Q7Z2W4)", "test": "co-IP; HEK293T ZAP-/- TRIM25-/- KHNYN-/- N4BP1-/- co-transfected; ZAP-L complexes isolated from lysates; western blot; in Fig 5g 500ng of ZAP-L and TRIM25 plasmids with increasing amounts of KHNYN plasmid"}, "ZAP-L-FLAG (human) [3]": {"biological_target": "ZAP-L-FLAG (human) (UniProt Q7Z2W4)", "test": "co-IP; HEK293T co-transfected, 48 h; lysis in 10mM HEPES pH7.5, 30mM KCl, 40uM EDTA, 0.1% Igepal CA-630, 1mM DTT; FLAG-tagged sensor precipitated with anti-FLAG on Protein G Dynabeads, 2h at 4C; final washes with 300mM KCl, 0.5% Igepal; western blot"}, "ZAP^E39K (ZAP-L) (human)": {"biological_target": "ZAP^E39K (ZAP-L) (human) (UniProt Q7Z2W4)", "test": "co-IP; HEK293T ZAP-/- TRIM25-/- co-transfected, 48 h; ZAP precipitated from lysates (ZAP-L-FLAG with anti-FLAG; antibody for ZAP-S not stated); buffers as in the co-IP methods; western blot"}, "ZAP-S E39K (human)": {"biological_target": "ZAP-S E39K (human) (UniProt Q7Z2W4)", "test": "co-IP; HEK293T ZAP-/- TRIM25-/- co-transfected, 48 h; ZAP precipitated from lysates (ZAP-L-FLAG with anti-FLAG; antibody for ZAP-S not stated); buffers as in the co-IP methods; western blot"}, "ZAP-S wildtype (human)": {"biological_target": "ZAP-S wildtype (human) (UniProt Q7Z2W4)", "test": "co-IP; HEK293T ZAP-/- TRIM25-/- co-transfected, 48 h; ZAP precipitated from lysates (ZAP-L-FLAG with anti-FLAG; antibody for ZAP-S not stated); buffers as in the co-IP methods; western blot"}, "OAS1-FLAG (human)": {"biological_target": "T2, OAS1-FLAG (human) (UniProt P00973)", "T2 sequence": "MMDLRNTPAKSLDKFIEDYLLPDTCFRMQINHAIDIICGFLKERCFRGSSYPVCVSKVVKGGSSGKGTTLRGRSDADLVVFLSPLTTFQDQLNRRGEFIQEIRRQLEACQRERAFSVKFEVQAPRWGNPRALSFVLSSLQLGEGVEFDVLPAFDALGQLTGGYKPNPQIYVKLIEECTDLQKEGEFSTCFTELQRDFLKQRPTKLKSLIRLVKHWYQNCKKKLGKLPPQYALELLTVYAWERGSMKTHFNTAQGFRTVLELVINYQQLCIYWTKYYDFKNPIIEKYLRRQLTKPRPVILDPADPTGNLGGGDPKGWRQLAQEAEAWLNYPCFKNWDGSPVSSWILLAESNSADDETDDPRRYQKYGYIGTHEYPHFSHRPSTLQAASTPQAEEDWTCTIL", "test": "co-IP; HEK293T co-transfected, 48 h; lysis in 10mM HEPES pH7.5, 30mM KCl, 40uM EDTA, 0.1% Igepal CA-630, 1mM DTT; FLAG-tagged sensor precipitated with anti-FLAG on Protein G Dynabeads, 2h at 4C; final washes with 300mM KCl, 0.5% Igepal; western blot"}, "mouse ZAP-L (mouse)": {"biological_target": "T3, mouse ZAP-L (mouse) (UniProt Q3UPF5)", "T3 sequence": "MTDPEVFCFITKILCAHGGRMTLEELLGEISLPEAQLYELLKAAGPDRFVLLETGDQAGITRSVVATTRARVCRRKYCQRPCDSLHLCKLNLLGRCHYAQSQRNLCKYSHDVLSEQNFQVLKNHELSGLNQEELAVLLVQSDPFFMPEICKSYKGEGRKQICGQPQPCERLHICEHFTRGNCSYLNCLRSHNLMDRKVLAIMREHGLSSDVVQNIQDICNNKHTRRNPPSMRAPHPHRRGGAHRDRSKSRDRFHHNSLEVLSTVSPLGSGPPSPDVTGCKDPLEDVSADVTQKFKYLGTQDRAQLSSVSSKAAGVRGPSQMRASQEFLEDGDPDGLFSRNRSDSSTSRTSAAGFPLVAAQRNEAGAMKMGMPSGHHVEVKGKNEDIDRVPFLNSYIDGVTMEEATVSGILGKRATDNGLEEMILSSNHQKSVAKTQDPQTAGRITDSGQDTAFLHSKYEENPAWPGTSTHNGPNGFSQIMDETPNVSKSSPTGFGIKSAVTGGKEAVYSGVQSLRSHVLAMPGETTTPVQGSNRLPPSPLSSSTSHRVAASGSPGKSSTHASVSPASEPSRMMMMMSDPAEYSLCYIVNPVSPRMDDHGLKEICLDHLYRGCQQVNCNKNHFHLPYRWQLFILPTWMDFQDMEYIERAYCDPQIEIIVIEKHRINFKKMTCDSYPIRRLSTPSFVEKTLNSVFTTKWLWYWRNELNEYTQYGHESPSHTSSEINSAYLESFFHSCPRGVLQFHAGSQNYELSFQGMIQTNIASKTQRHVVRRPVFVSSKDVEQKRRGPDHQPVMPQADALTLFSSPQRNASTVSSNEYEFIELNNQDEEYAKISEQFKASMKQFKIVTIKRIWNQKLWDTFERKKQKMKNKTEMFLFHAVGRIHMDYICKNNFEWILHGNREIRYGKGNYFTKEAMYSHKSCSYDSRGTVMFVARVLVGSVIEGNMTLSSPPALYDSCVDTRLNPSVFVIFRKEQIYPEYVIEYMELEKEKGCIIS", "test": "co-IP; HEK293T co-transfected, 48 h; lysis in 10mM HEPES pH7.5, 30mM KCl, 40uM EDTA, 0.1% Igepal CA-630, 1mM DTT; FLAG-tagged sensor precipitated with anti-FLAG on Protein G Dynabeads, 2h at 4C; final washes with 300mM KCl, 0.5% Igepal; western blot"}}, "note": "These are yes or no findings as the source states them, for the method shown. In cells and extracts the contact can be indirect. Some entries that bind do so weakly or less than the wild type. For some of these results: Sequences can lack the tags named with a protein."}
{"substance": "BTNL9-HA (from UniProt Q6UXG8 35-535)", "values": [{"measurement": "binding", "setting": "STING-FLAG (human)", "value": "binds"}]}
{"substance": "Riplet-T25^SPRY (from UniProt Q8IUD6 1-240; Q14258 404-630)", "values": [{"measurement": "binding", "setting": "ZAP-L-FLAG (human) [1]", "value": "binds"}]}
{"substance": "T25-Riplet^SPRY (from UniProt Q14258 1-403; Q8IUD6 241-432)", "values": [{"measurement": "binding", "setting": "RIG-I-FLAG (human)", "value": "binds"}, {"measurement": "binding", "setting": "ZAP-L-FLAG (human) [1]", "value": "no binding"}]}
{"substance": "TRIM25-HA (from UniProt Q14258 1-630) (enzyme)", "values": [{"measurement": "binding", "setting": "ZAP-L-FLAG (human) [2]", "value": "binds"}, {"measurement": "binding", "setting": "ZAP-L-FLAG (human) [3]", "value": "binds"}, {"measurement": "binding", "setting": "ZAP-L-FLAG (human) [1]", "value": "binds"}]}
{"substance": "TRIM25^K469E (from UniProt Q14258 1-630) (enzyme)", "values": [{"measurement": "binding", "setting": "ZAP-L-FLAG (human) [1]", "value": "binds"}, {"measurement": "binding", "setting": "ZAP^E39K (ZAP-L) (human)", "value": "binds"}, {"measurement": "binding", "setting": "ZAP-S E39K (human)", "value": "binds"}, {"measurement": "binding", "setting": "ZAP-S wildtype (human)", "value": "binds"}]}
{"substance": "TRIM58 C57S C60S (from UniProt Q8NG06 1-486) (enzyme)", "values": [{"measurement": "binding", "setting": "OAS1-FLAG (human)", "value": "binds"}]}
{"substance": "mouse TRIM25 (from UniProt Q61510 1-634) (enzyme)", "values": [{"measurement": "binding", "setting": "mouse ZAP-L (mouse)", "value": "binds"}]}
